A short description of the test: qHTS Assay to Find Inhibitors of Chronic Active B-Cell Receptor Signaling. To be noted: ABC-DLBCL IkBa-CBG/CBR reporter, luminescence ratio (green luciferase fused to IkBa over red control in TMD8 lymphoma cells), 4 h. Put shortly: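 TMD8 ABC-DLBCL cells carrying doxycycline-inducible green luciferase fused to IkappaBalpha plus unfused red luciferase were exposed to compounds (up to 46 uM) for 4 hrs at 37C. Activity came from the overlap-corrected green/red luminescence ratio.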
A general note: Quantitative high-throughput screening tests each substance at several concentrations.

[1] abbreviates: measured here: CBR red luminescence, cell number.
Setting [2] is: measured here: IkBa-CBG green luminescence.

Each structure is given as a SMILES string. The list shows a part of the results. Shown are side measurements of this screen, not its main read-out; they come without a call. Most of these compounds were active or inconclusive in the main read-out, so they are no random draw. Potencies come from curve fits of mixed quality, noted in brackets.

For the compound `O=C(CCCc1c[nH]c2ccccc12)NCc1ccccc1F`, the half-maximal activity concentration (AC50) under setting [1] is 7.94 µM [falling, partial curve, poor fit].
Take `Cc1ccc(-c2onc3ccc(Br)cc23)cc1`: under setting [1], the AC50 is 20 µM [rising, partial curve, poor fit].
The same measure, in the same setting: as for `O=C(Nc1ccccc1)C1COc2ccccc2O1` (centres undefined), the figure is 0.501 µM [rising, full curve, poor fit].
Still for that read-out and setting: next, `COc1cc(/C=N/Nc2nc(Nc3ccc(C)cc3)nc(-n3nc(C)cc3C)n2)cc(OC)c1OC`: 0.517 µM [falling, full curve]; `Cc1ccccc1NC(=O)CCN1CCN(Cc2ccccc2)CC1`: 13 µM [rising, partial curve]; `O=C(COc1ccccc1Cl)NCCCNC(=O)c1ccco1`: 5.01 µM [falling, partial curve, poor fit].
Consider `CCOc1ccc(-c2noc(CCCC(=O)NC3CCCCC3)n2)cc1OC`, for which the concentration at half-maximal activity (AC50) under setting [1] was 5.01 µM [falling, partial curve].
With `O=C(CN1CCN(CC(=O)Nc2ccccc2Cl)CC1)Nc1ccc2c(c1)OCCO2`, under setting [1], the AC50 is 22.4 µM [falling, single point].
As for `COc1ccc(/C=N/NC(=O)c2ccccc2O)cc1Cn1cc(Cl)cn1`, the AC50 under setting [1] was 7.08 µM [falling, full curve].
Take `O=C(NCc1cccs1)c1nc2c(nnn2Cc2ccccc2Cl)c(=O)[nH]1`: the AC50 under setting [1] was 4.11 µM [falling, full curve, poor fit] and the AC50 under setting [2] was 5.17 µM [rising, full curve, poor fit].
As to `Cc1ccoc1C(=O)NCc1occc1C(=O)O`, the concentration at half-maximal activity (AC50) under setting [1] was 11.2 µM [falling, partial curve].
Still for that read-out and setting: next, `Cc1cc(C)n2nc(C(=O)Nc3cccc(S(=O)(=O)N4CCOCC4)c3)nc2n1`: 0.92 µM [rising, full curve, poor fit]; `CCN(CC)S(=O)(=O)c1ccc(NC(=S)NC(=O)C(C)C)cc1`: 16.4 µM [rising, partial curve, poor fit]; `CC(C)CN(C(=O)COC(=O)Cc1ccc(Cl)cc1)c1c(N)n(Cc2ccccc2)c(=O)[nH]c1=O`: 29.1 µM [rising, single point].
In the case of `CCOC(=O)c1cnc(SCc2nc(N)nc(Nc3ccc(OC)cc3)n2)nc1N`, the AC50 under setting [1] is 0.651 µM [rising, full curve, poor fit].
Take `COc1ccccc1NC(=O)COC(=O)CNC(=O)c1ccc(OC)c(OC)c1`: under setting [1], the AC50 is 29.1 µM [rising, single point].
The same measure, in the same setting: next, `COc1cc(OC)cc(C(=O)NCC(=O)NCCN2C(=O)S/C(=C\c3ccccc3Cl)C2=O)c1`: 29.1 µM [falling, single point]; `CCCc1nc(SCC(=O)Nc2cc(C)on2)c2ccccc2n1`: 10 µM [falling, partial curve]; `O=C(CNC(=O)c1cccs1)N/N=C/c1ccco1`: 35.5 µM [falling, single point].
Still for that read-out and setting: next, `CC1=NN(c2nc(-c3ccc(Cl)cc3)cs2)C(=O)C1`: 17.8 µM [falling, single point]; `CC(=O)c1ccc(Sc2nnc(C)s2)c([N+](=O)[O-])c1`: 25.1 µM [falling, single point].
For the compound `CCOC(=O)N1CCN(C(=O)c2ccccc2N(C)S(C)(=O)=O)CC1`, the AC50 under setting [1] is 23.1 µM [falling, single point].
On to `CC(C)COC(=O)c1ccc2c(c1O)C(=O)c1ccccc1C2=O`, for which, under setting [1], the AC50 was 9.2 µM [rising, partial curve, poor fit].
For the compound `CNC(=S)N/N=C(\C)c1cccc([N+](=O)[O-])c1`, the AC50 is, setting by setting: under setting [1], 18.4 µM [rising, partial curve, poor fit]; under setting [2], 23.1 µM [falling, partial curve, poor fit].
For `CC(NS(=O)(=O)c1ccccc1)C(=O)NCc1ccco1` (centres undefined), the AC50 under setting [1] was 6.51 µM [rising, single point].
For the compound `Cc1ccc(C(=O)Nc2ccc(O)c(C(=O)O)c2)o1`, the half-maximal activity concentration (AC50) under setting [1] was 23.1 µM [falling, partial curve, poor fit].
For the compound `COc1ccc2nc(C)cc(Sc3nc4ccccc4s3)c2c1`, the AC50 by setting is: under setting [1], 12.6 µM [falling, partial curve]; under setting [2], 8.91 µM [falling, partial curve, poor fit].
Take `CCOc1ccc(S(=O)(=O)N(CC)CC(=O)NCc2cccnc2)cc1`: under setting [1], the half-maximal activity concentration (AC50) was 2.24 µM [rising, partial curve, poor fit].
Turning to `CNc1ccc([N+](=O)[O-])cc1-c1nc2ccccc2[nH]c1=O`, the AC50 under setting [1] is 3.98 µM [falling, partial curve, poor fit].
Consider `Cc1cccc(C(=O)N[C@H](C(=O)Nc2nc3ccccc3[nH]2)C(C)C)c1`, for which the AC50 is 5.62 µM [rising, full curve, poor fit] under setting [1] and 7.08 µM [falling, partial curve] under setting [2].
As for `COc1ccccc1NC(=O)c1c(O)c2ccccc2[nH]c1=O`, the concentration at half-maximal activity (AC50) under setting [1] is 0.0891 µM [falling, full curve, poor fit].
For `CCOC(=O)c1ccc(NC(=O)c2cc(OC)c(OC)c(OC)c2Br)cc1`, under setting [1], the half-maximal activity concentration (AC50) was 9.2 µM [rising, partial curve, poor fit].
Still for that read-out and setting: as for `CCOc1ccc(CCNC(=O)CS(=O)(=O)Cc2nc(-c3cccc(OC)c3)oc2C)cc1`, the figure is 0.0891 µM [falling, full curve, poor fit]; as for `CCCn1nnc(NC(=O)c2cc3ccccc3o2)n1`, 13 µM [falling, partial curve].
`O=C(CCl)NCc1c(Cl)cccc1-n1cccc1`: the concentration at half-maximal activity (AC50) under setting [1] was 3.98 µM [falling, full curve, poor fit].
Consider `CC(C)(C)c1ccc(OCc2ccc(C(=O)N3CCOCC3)o2)cc1`, for which the AC50 under setting [1] is 25.1 µM [falling, single point].
Consider `O=C(CSc1ccccc1)Nc1ccc2c(c1)OCO2`, for which the AC50 under setting [1] was 1.58 µM [rising, partial curve, poor fit].
For `COc1ccc(OC)c(C(=O)NC2CC(C)(C)Cc3c2cnn3-c2ccccc2)c1` (centres undefined), the AC50 under setting [1] was 6.31 µM [falling, partial curve, poor fit].
As for `Cc1ccc(-n2cc(CN(C)Cc3ncc[nH]3)c(-c3cccc(C)c3)n2)cc1`, the AC50 by setting is: under setting [1], 35.5 µM [falling, single point]; under setting [2], 35.5 µM [rising, single point].

For orientation: AC50 means the concentration giving half of the maximal activity seen.

For the origin of these results see PubChem BioAssay AID493014 (National Center for Advancing Translational Sciences (NCATS), 2011).
